Reference: ChEMBL document CHEMBL4316593 (Eur J Med Chem, 2019)
The source gives many values for each of these; only a part stands here.

Columns and labels:
Format in all cases: cell-based
Details in all cases: U-87MG ATCC
[1] = Inhibition of RTK/PI3K/AKT/mTOR signaling in human U87 cells assessed as up regulation of zinc finger protein 608 gene expression at cytotoxic IC50 measured after 48 hrs relative to control
[2] = Inhibition of RTK/PI3K/AKT/mTOR signaling in human U87 cells assessed as up regulation of pyruvate dehydrogenase phosphatase catalytic subunit 1 gene expression at cytotoxic IC50 measured after 48 hrs relative to control
[3] = Inhibition of RTK/PI3K/AKT/mTOR signaling in human U87 cells assessed as up regulation of MCF.2 cell line derived transforming sequence like gene expression at cytotoxic IC50 measured after 48 hrs relative to control
[4] = Inhibition of RTK/PI3K/AKT/mTOR signaling in human U87 cells assessed as down regulation of RDH10 gene expression at cytotoxic IC50 measured after 48 hrs relative to control
[5] = Inhibition of RTK/PI3K/AKT/mTOR signaling in human U87 cells assessed as up regulation of Ras association domain family member 7 gene expression at cytotoxic IC50 measured after 48 hrs relative to control
[6] = Inhibition of RTK/PI3K/AKT/mTOR signaling in human U87 cells assessed as down regulation of LAMC2 gene expression at cytotoxic IC50 measured after 48 hrs relative to control
[7] = Inhibition of RTK/PI3K/AKT/mTOR signaling in human U87 cells assessed as down regulation of CCND3 gene expression at cytotoxic IC50 measured after 48 hrs relative to control
[8] = Inhibition of RTK/PI3K/AKT/mTOR signaling in human U87 cells assessed as down regulation of PELI1 gene expression at cytotoxic IC50 measured after 48 hrs relative to control
[9] = Inhibition of RTK/PI3K/AKT/mTOR signaling in human U87 cells assessed as down regulation of DHRS7 gene expression at cytotoxic IC50 measured after 48 hrs relative to control
[10] = Inhibition of RTK/PI3K/AKT/mTOR signaling in human U87 cells assessed as down regulation of PKNOX1 gene expression at cytotoxic IC50 measured after 48 hrs relative to control
[11] = Inhibition of RTK/PI3K/AKT/mTOR signaling in human U87 cells assessed as down regulation of DAAM1 gene expression at cytotoxic IC50 measured after 48 hrs relative to control
[12] = Inhibition of RTK/PI3K/AKT/mTOR signaling in human U87 cells assessed as down regulation of TSPAN12 gene expression at cytotoxic IC50 measured after 48 hrs relative to control
[13] = Inhibition of RTK/PI3K/AKT/mTOR signaling in human U87 cells assessed as up regulation of transmembrane protein 39B gene expression at cytotoxic IC50 measured after 48 hrs relative to control
[14] = Inhibition of RTK/PI3K/AKT/mTOR signaling in human U87 cells assessed as up regulation of vitamin K epoxide reductase complex subunit 1 gene expression at cytotoxic IC50 measured after 48 hrs relative to control
[15] = Inhibition of RTK/PI3K/AKT/mTOR signaling in human U87 cells assessed as up regulation of H1 histone family member 0 gene expression at cytotoxic IC50 measured after 48 hrs relative to control
[16] = Inhibition of RTK/PI3K/AKT/mTOR signaling in human U87 cells assessed as up regulation of IGFBP6 gene expression at cytotoxic IC50 measured after 48 hrs relative to control
[17] = Inhibition of RTK/PI3K/AKT/mTOR signaling in human U87 cells assessed as down regulation of RTN4 gene expression at cytotoxic IC50 measured after 48 hrs relative to control
[18] = Inhibition of RTK/PI3K/AKT/mTOR signaling in human U87 cells assessed as down regulation of ELOF1 gene expression at cytotoxic IC50 measured after 48 hrs relative to control
[19] = Inhibition of RTK/PI3K/AKT/mTOR signaling in human U87 cells assessed as up regulation of PTP4A2 gene expression at cytotoxic IC50 measured after 48 hrs relative to control
[20] = Inhibition of RTK/PI3K/AKT/mTOR signaling in human U87 cells assessed as up regulation of pleckstrin homology domain containing A6 gene expression at cytotoxic IC50 measured after 48 hrs relative to control
[21] = Inhibition of RTK/PI3K/AKT/mTOR signaling in human U87 cells assessed as up regulation of programmed cell death 4 gene expression at cytotoxic IC50 measured after 48 hrs relative to control
[22] = Inhibition of RTK/PI3K/AKT/mTOR signaling in human U87 cells assessed as down regulation of CCDC14 gene expression at cytotoxic IC50 measured after 48 hrs relative to control
[23] = Inhibition of RTK/PI3K/AKT/mTOR signaling in human U87 cells assessed as down regulation of HAUS3 gene expression at cytotoxic IC50 measured after 48 hrs relative to control
[24] = Inhibition of RTK/PI3K/AKT/mTOR signaling in human U87 cells assessed as down regulation of MMD gene expression at cytotoxic IC50 measured after 48 hrs relative to control
[25] = Inhibition of RTK/PI3K/AKT/mTOR signaling in human U87 cells assessed as down regulation of KHDRBS3 gene expression at cytotoxic IC50 measured after 48 hrs relative to control
[26] = Inhibition of RTK/PI3K/AKT/mTOR signaling in human U87 cells assessed as down regulation of KLHL38 gene expression at cytotoxic IC50 measured after 48 hrs relative to control
[27] = Inhibition of RTK/PI3K/AKT/mTOR signaling in human U87 cells assessed as up regulation of MAP kinase interacting serine/threonine kinase 2 gene expression at cytotoxic IC50 measured after 48 hrs relative to control
[28] = Inhibition of RTK/PI3K/AKT/mTOR signaling in human U87 cells assessed as down regulation of NAP1L5 gene expression at cytotoxic IC50 measured after 48 hrs relative to control
[29] = Inhibition of RTK/PI3K/AKT/mTOR signaling in human U87 cells assessed as down regulation of ZNF714 gene expression at cytotoxic IC50 measured after 48 hrs relative to control
[30] = Inhibition of RTK/PI3K/AKT/mTOR signaling in human U87 cells assessed as up regulation of family with sequence similarity 114 member A1 gene expression at cytotoxic IC50 measured after 48 hrs relative to control
[31] = Inhibition of RTK/PI3K/AKT/mTOR signaling in human U87 cells assessed as up regulation of protein tyrosine phosphatase, receptor type F gene expression at cytotoxic IC50 measured after 48 hrs relative to control
[32] = Inhibition of RTK/PI3K/AKT/mTOR signaling in human U87 cells assessed as down regulation of MCPH1 gene expression at cytotoxic IC50 measured after 48 hrs relative to control

CC(=O)C(=NNc1ccccc1C#N)C(C)=O
log2FC [1]: 1.5 | log2FC [2]: 0.795 | log2FC [3]: 1.03 | log2FC [4]: -1.15 | log2FC [5]: 1.05 | log2FC [6]: -1.47 | log2FC [7]: -1.62 | log2FC [8]: -1.43 | log2FC [9]: -0.877 | log2FC [10]: -0.768 | log2FC [11]: -0.918 | log2FC [12]: -1.41 | log2FC [13]: 0.797 | log2FC [14]: 1.03 | log2FC [15]: 0.935 | log2FC [16]: 2.65 | log2FC [17]: -0.445 | log2FC [18]: -0.856 | log2FC [19]: 0.609 | log2FC [20]: 1.32 | log2FC [21]: 0.731 | log2FC [22]: -0.716 | log2FC [23]: -1.12 | log2FC [24]: -0.743 | log2FC [25]: -2.25 | log2FC [26]: -6.78 | log2FC [27]: 1.09 | log2FC [28]: -2.21 | log2FC [29]: -1.41 | log2FC [30]: 0.729 | log2FC [31]: 1.4 | log2FC [32]: -0.783
